Experimental data as given in article doi:10.1101/243014.

Protein sequences, listed by entry. Tags and fused reporters are not part of them. Lines headed by an entry give the natural chain unless they say otherwise; changes in a name come on top.
UniProt P49756: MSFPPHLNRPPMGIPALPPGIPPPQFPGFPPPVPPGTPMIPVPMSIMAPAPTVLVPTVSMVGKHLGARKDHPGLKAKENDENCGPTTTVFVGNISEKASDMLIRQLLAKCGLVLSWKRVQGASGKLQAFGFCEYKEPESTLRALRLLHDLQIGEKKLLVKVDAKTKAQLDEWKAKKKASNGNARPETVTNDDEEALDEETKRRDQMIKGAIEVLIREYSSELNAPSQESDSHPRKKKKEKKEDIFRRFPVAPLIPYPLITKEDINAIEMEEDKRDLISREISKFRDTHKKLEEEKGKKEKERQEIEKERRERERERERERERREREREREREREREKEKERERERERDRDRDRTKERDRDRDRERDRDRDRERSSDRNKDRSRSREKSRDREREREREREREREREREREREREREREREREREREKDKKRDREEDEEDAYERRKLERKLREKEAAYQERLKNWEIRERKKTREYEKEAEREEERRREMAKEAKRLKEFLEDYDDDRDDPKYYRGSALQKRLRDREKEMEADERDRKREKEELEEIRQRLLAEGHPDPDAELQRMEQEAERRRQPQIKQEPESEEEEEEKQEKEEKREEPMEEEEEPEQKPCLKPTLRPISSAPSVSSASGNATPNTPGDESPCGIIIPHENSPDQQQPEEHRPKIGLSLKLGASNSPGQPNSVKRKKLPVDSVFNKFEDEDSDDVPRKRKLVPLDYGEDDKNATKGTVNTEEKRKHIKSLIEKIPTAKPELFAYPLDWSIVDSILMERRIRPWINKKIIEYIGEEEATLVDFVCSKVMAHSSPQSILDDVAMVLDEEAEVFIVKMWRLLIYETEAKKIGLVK
UniProt P08621: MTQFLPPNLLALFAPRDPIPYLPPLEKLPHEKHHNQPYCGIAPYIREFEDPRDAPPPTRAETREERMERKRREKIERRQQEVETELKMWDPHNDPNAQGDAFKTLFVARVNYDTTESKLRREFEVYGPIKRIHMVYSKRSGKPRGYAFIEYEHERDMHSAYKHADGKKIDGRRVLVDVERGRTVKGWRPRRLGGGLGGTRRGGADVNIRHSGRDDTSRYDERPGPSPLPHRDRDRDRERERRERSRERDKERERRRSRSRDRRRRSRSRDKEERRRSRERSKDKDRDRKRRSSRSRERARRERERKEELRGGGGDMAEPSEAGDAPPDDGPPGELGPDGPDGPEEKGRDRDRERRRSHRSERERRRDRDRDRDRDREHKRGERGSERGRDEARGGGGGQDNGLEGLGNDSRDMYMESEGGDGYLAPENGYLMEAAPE

Assays:
Test in all cases: co-IP
rLUC7L3-ΔMC = rLUC7L3-ΔMC (UniProt O95232)
rRBM25-ΔMC = rRBM25-ΔMC (UniProt P49756)
[1] = target: rRBM25 mixed charge (MC) domain alone
[2] = target: rLUC7L3 mixed charge (MC) domain alone

binding (rLUC7L3-ΔMC) | binding (rRBM25-ΔMC) | binding [1] | binding [2] | Molecule
no binding | no binding | – | – | endogenous U1-70K (from UniProt P08621 1-437)
– | no binding | no binding | binds | endogenous LUC7L3 (protein, UniProt O95232 1-432) MISAAQLLDELMGRDRNLAPDEKRSNVRWDHESVCKYYLCGFCPAELFTNTRSDLGPCEKIHDENLRKQYEKSSRFMKVGYERDFLRYLQSLLAEVERRIRRGHARLALSQNQQSSGAAGPTGKNEEKIQVLTDKIDVLLQQIEELGSEGKVEEAQGMMKLVEQLKEERELLRSTTSTIESFAAQEKQMEVCEVCGAFLIVGDAQSRVDDHLMGKQHMGYAKIKATVEELKEKLRKRTEEPDRDERLKKEKQEREEREKEREREREERERKRRREEEEREKERARDRERRKRSRSRSRHSSRTSDRRCSRSRDHKRSRSRERRRSRSRDRRRSRSHDRSERKHRSRSRDRRRSKSRDRKSYKHRSKSRDREQDRKSKEKEKRGSDDKKSSVKSGSREKQSEDTNTESKESDTKNEVNGTSEDIKSEGDTQSN

Results are given in words; binding and its absence hold for the method and conditions named. Binding seen in cells or lysates may run through a third protein. For some assays here: Binding calls can cover weak binding; strength is not graded here. For some assays here: Sequences can lack the tags named with a protein.
